PubChem BioAssay AID652259, Drosophila RNAi Screening Center, 2013

Purpose: 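Identify new Wingless signalling regulators in fly cells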 (primary screen)
System: Drosophila clone 8 imaginal disc epithelial cells
Knock-down reagent: long dsRNA against Drosophila genes
Challenge: pathway stimulated by co-transfected Wingless expression plasmid
Detection: 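Firefly luciferase from a tcf-site Wingless reporter, measured alongside co-transfected Renilla luciferase that tracks transfection; pathway stimulated by a Wingless plasmid; the firefly-to-Renilla ratio is not deposited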
Scale: firefly reporter light: higher = more Wg reporter light, before normalisation; Renilla control light: higher = more transfected or surviving cells
Hit rule: 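a knock-down is a candidate when at least two out of four statistical tests show it departing from its plate mean; one test alone signals a weak candidate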
Meaning of the calls: active = candidate regulator (raises or lowers reporter); inactive = not a candidate
In all, the deposit lists about 22,000 reagents; below is an unselected part of those that have a named target and a result. Over the whole deposit, 233 (1.1%) are marked active. 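Light values are raw, unnormalised plate reads; the ratio scores behind the reporter calls were not deposited.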 Reagent sequences are not shown. Not given: the amount of reagent, the time to read-out, the dose of the treatment.

The opening 3 records as a preview:
gene knocked down	amplicon	firefly reporter light, replicate 1	firefly reporter light, replicate 2	Renilla control light, replicate 1	Renilla control light, replicate 2	activity call
CG6290	DRSC19979	4156	9786	1207	3754	inactive
Shal	DRSC09625	3047		1248		inactive
Shal	DRSC11283	19020		7494		inactive

Main list, from the first entry:
gene knocked down	amplicon	firefly reporter light, replicate 1	firefly reporter light, replicate 2	Renilla control light, replicate 1	Renilla control light, replicate 2	activity call
CG6290	DRSC19979	4156	9786	1207	3754	inactive
Shal	DRSC09625	3047		1248		inactive
Shal	DRSC11283	19020		7494		inactive
CG13198	DRSC06323	8378		3489		inactive
emei	DRSC10897	11559		3949		inactive
emei	DRSC22684	5.51e5	5.26e5	1.91e5	1.60e5	inactive
CoRest	DRSC19881	3286	5796	1548	1885	inactive
CoRest	DRSC21626	6.63e5	6.65e5	3.49e5	2.54e5	inactive
CoRest	DRSC22305	2.86e5	2.83e5	1.26e5	1.34e5	inactive
cbt	DRSC00655	8688		3308		inactive
Mzt1	DRSC07979	3648		1442		inactive
CG14518	DRSC14870	7270		3387		inactive
pic	DRSC16639	6093		2361		inactive
lncRNA:CR32553	DRSC19229	4184		1196		inactive
CG42675	DRSC12157	6119		2439		inactive
CG42675	DRSC21868	6.65e5	6.58e5	2.63e5	2.82e5	inactive
Cpr47Ea	DRSC07333	9091		3824		inactive
p24-1	DRSC19827	16359		8605		inactive
Osi1	DRSC12271	21133		5241		inactive
Cp190	DRSC16607	3597		1677		inactive
CG12439	DRSC02168	2176	3424	761	2037	inactive
crim	DRSC10573	9591		4019		inactive
GCC88	DRSC14264	15447		4582		inactive
CG1494	DRSC20509	22759		9025		inactive
trn	DRSC11407	6040		2976		inactive
tsr	DRSC04718	2464	6778	864	3562	inactive
CG31038	DRSC15051	3936	3969	1226	1098	inactive
CG31038	DRSC16326	5499		3643		inactive
CG31038	DRSC16327	6929		3712		inactive
